PubChem BioAssay AID1159578 | Peter MacCallum Cancer Centre, 2015

Test: 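Knock-downs that alter how fast lymphatic endothelial cells migrate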 (primary screen)
Cell system: human lymphatic endothelial cells
Knock-down reagent: siRNA pool against human genes, 40 nM
Duration: 48 h after transfection
Measurement: 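Cells stained with dye and imaged after a scratch; covered wound area and nuclei counted, duplicates averaged, migration set against mock wells and turned into a robust z-score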
Direction: migration robust z-score: higher = faster migration into the scratch; migration relative to mock: higher = more scratch area covered than mock; nuclei per well: higher = more cells in the well
Rule for the call: 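Migration changed when robust z exceeds 2 or falls below -2 and mean nuclei number is at least 3300; otherwise not called changed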
Calls: active = migration changed; inactive = no migration change, or too few cells
The deposit covers about 18,000 reagents; shown is a part drawn at random. About 1,030 of all reagents (5.7%) were called active. 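Inactive calls also include pools with fewer than 3300 nuclei, whose migration was not assessed.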 Raw values are not corrected between plates.

no.	gene knocked down	migration robust z-score	migration class with cell-count check	migration relative to mock	nuclei per well, duplicate mean	outcome
1	CCDC197 (coiled-coil domain containing 197)	-0.27	migration z between -2 and 2; enough cells	0.82	5369	inactive
2	BOD1L1 (biorientation of chromosomes in cell division 1 like 1)	0.6	migration z between -2 and 2; enough cells	1.03	5784	inactive
3	FAM110D (family with sequence similarity 110 member D)	-0.36	migration z between -2 and 2; enough cells	0.79	6594	inactive
4	COL6A2 (collagen type VI alpha 2 chain)	-1.31	migration z between -2 and 2; enough cells	0.54	4332	inactive
5	IKZF4 (IKAROS family zinc finger 4)	-0.18	migration z between -2 and 2; enough cells	0.84	5622	inactive
6	LIN7C (lin-7 cell polarity scaffold C)	1.43	migration z between -2 and 2; enough cells	1.25	6433	inactive
7	ARAP3 (ArfGAP with RhoGAP domain, ankyrin repeat and PH domain 3)	1.18	migration z between -2 and 2; enough cells	1.19	5338	inactive
8	ECT2L (epithelial cell transforming 2 like)	0.22	migration z between -2 and 2; enough cells	0.94	4776	inactive
9	SLC30A1	0.16	migration z between -2 and 2; enough cells	0.84	5615	inactive
10	CNEP1R1 (CTD nuclear envelope phosphatase 1 regulatory subunit 1)	0.17	migration z between -2 and 2; enough cells	0.93	5592	inactive
11	PABPC4 (poly(A) binding protein cytoplasmic 4)	-3.32	migration z below -2; enough cells	0.02	4164	active
12	PHYHIPL (phytanoyl-CoA 2-hydroxylase interacting protein like)	-0.9	migration z between -2 and 2; enough cells	0.65	6448	inactive
13	ZNF106 (zinc finger protein 106)	0.42	migration z between -2 and 2; enough cells	0.99	6072	inactive
14	H2BC9 (H2B clustered histone 9)	-0.84	migration z between -2 and 2; enough cells	0.66	5459	inactive
15	IRX5 (iroquois homeobox 5)	-0.02	migration z between -2 and 2; enough cells	0.88	6009	inactive
16	CFI (complement factor I)	-1.17	migration z between -2 and 2; enough cells	0.58	5070	inactive
17	HLA-DQA2 (major histocompatibility complex, class II, DQ alpha 2)	-0.8	migration z between -2 and 2; enough cells	0.68	4564	inactive
18	PDIA4 (protein disulfide isomerase family A member 4)	0.65	migration z between -2 and 2; enough cells	0.93	5611	inactive
19	RBM26 (RNA binding motif protein 26)	0.88	migration z between -2 and 2; enough cells	1.12	5879	inactive
20	CCR10 (C-C motif chemokine receptor 10)	-0.13	migration z between -2 and 2; enough cells	0.78	5025	inactive
21	ASB12 (ankyrin repeat and SOCS box containing 12)	-0.36	migration z between -2 and 2; enough cells	0.74	6278	inactive
22	CGNL1 (cingulin like 1)	1.73	migration z between -2 and 2; enough cells	1.33	7804	inactive
23	C16orf90 (chromosome 16 open reading frame 90)	1.64	migration z between -2 and 2; enough cells	1.31	7092	inactive
24	TAAR2 (trace amine associated receptor 2)	-0.75	migration z between -2 and 2; enough cells	0.66	6014	inactive
25	BIK (BCL2 interacting killer)	-0.55	migration z between -2 and 2; enough cells	0.74	5852	inactive
26	NPBWR2 (neuropeptides B and W receptor 2)	-0.9	migration z between -2 and 2; enough cells	0.63	5714	inactive
27	TAS2R39 (taste 2 receptor member 39)	-0.06	migration z between -2 and 2; enough cells	0.87	4835	inactive
28	KAT2A (lysine acetyltransferase 2A)	-0.83	migration z between -2 and 2; enough cells	0.64	5576	inactive
29	SAP30L (SAP30 like)	-1.29	migration z between -2 and 2; enough cells	0.55	4995	inactive
30	PAIP1 (poly(A) binding protein interacting protein 1)	-1.19	migration z between -2 and 2; enough cells	0.57	4306	inactive
31	EVX1 (even-skipped homeobox 1)	0.44	migration z between -2 and 2; enough cells	0.89	5544	inactive
32	ARSD (arylsulfatase D)	-0.65	migration z between -2 and 2; enough cells	0.68	4565	inactive
33	NXPE2 (neurexophilin and PC-esterase domain family member 2)	1.56	migration z between -2 and 2; enough cells	1.29	5417	inactive
34	UCN (urocortin)	-0.45	migration z between -2 and 2; enough cells	0.77	4984	inactive
35	CDC40 (cell division cycle 40)	0.31	migration z between -2 and 2; enough cells	0.97	5438	inactive
36	MGAT2	0.56	migration z between -2 and 2; enough cells	1.03	6168	inactive
37	PIGP (phosphatidylinositol glycan anchor biosynthesis class P)	0.76	migration z between -2 and 2; enough cells	1.08	6404	inactive
38	HSCB (HscB mitochondrial iron-sulfur cluster cochaperone)	-0.7	migration z between -2 and 2; enough cells	0.7	6008	inactive
39	C1QTNF9 (C1q and TNF related 9)	0.28	migration z between -2 and 2; enough cells	0.96	5888	inactive
40	ECE1 (endothelin converting enzyme 1)	1.61	migration z between -2 and 2; enough cells	1.11	4312	inactive
41	PTS (6-pyruvoyltetrahydropterin synthase)	0.42	migration z between -2 and 2; enough cells	0.88	6278	inactive
42	ZNF530 (zinc finger protein 530)	-1.21	migration z between -2 and 2; enough cells	0.57	6096	inactive
43	ENTPD8 (ectonucleoside triphosphate diphosphohydrolase 8)	-0.02	migration z between -2 and 2; enough cells	0.8	4701	inactive
44	BABAM2 (BRISC and BRCA1 A complex member 2)	-2.45	under 3300 nuclei; migration not judged	0.26	3231	inactive
45	KRTAP4-1 (keratin associated protein 4-1)	1.06	migration z between -2 and 2; enough cells	1.16	5873	inactive
46	YJU2B (YJU2 splicing factor homolog B)	0.08	migration z between -2 and 2; enough cells	0.91	6334	inactive
47	LDLRAD2 (low density lipoprotein receptor class A domain containing 2)	0.55	migration z between -2 and 2; enough cells	1.02	4296	inactive
48	ZNF431 (zinc finger protein 431)	1.58	migration z between -2 and 2; enough cells	1.29	5953	inactive
49	ILDR1 (immunoglobulin like domain containing receptor 1)	2.4	migration z above 2; enough cells	1.51	7710	active
50	RCE1 (Ras converting CAAX endopeptidase 1)	-0.83	migration z between -2 and 2; enough cells	0.64	5211	inactive
51	MRPS33 (mitochondrial ribosomal protein S33)	-0.26	migration z between -2 and 2; enough cells	0.82	6200	inactive
52	RB1 (RB transcriptional corepressor 1)	0.44	migration z between -2 and 2; enough cells	0.89	6066	inactive
53	SERPINB1 (serpin family B member 1)	0.62	migration z between -2 and 2; enough cells	0.92	6190	inactive
54	KRT18P55 (keratin 18 pseudogene 55)	-0.9	migration z between -2 and 2; enough cells	0.64	5738	inactive
55	ARX (aristaless related homeobox)	-0.83	migration z between -2 and 2; enough cells	0.64	5710	inactive
56	ZNHIT6 (zinc finger HIT-type containing 6)	-1.69	migration z between -2 and 2; enough cells	0.44	4992	inactive
57	MTBP (MDM2 binding protein)	0.26	migration z between -2 and 2; enough cells	0.96	5832	inactive

Reformatted: 5 of the entries above
gene knocked down,migration robust z-score,migration class with cell-count check,migration relative to mock,"nuclei per well, duplicate mean",outcome
ECT2L (epithelial cell transforming 2 like),0.22,migration z between -2 and 2; enough cells,0.94,4776,inactive
SLC30A1,0.16,migration z between -2 and 2; enough cells,0.84,5615,inactive
CNEP1R1 (CTD nuclear envelope phosphatase 1 regulatory subunit 1),0.17,migration z between -2 and 2; enough cells,0.93,5592,inactive
PABPC4 (poly(A) binding protein cytoplasmic 4),-3.32,migration z below -2; enough cells,0.02,4164,active
PHYHIPL (phytanoyl-CoA 2-hydroxylase interacting protein like),-0.9,migration z between -2 and 2; enough cells,0.65,6448,inactive
